# Some of the results follow.
# Tests used:
# Assay in all cases: glycan array binding signal (z-score within array); higher = stronger binding
# Settings in all cases: glycan notation: IUPAC condensed, linker removed
# [1] = system: Fuc(a1-2)[Gal(a1-3)]Gal(b1-4)[Fuc(a1-3)]GlcNAc(b1-3)GalNAc
# Outline: (§1)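 The binding signal is a Z-score computed within each array and averaged over linkers. Arrays of the same protein sequence at different concentrations or buffers were also averaged together. Data originate from 3228 arrays in the Consortium for Functional Glycomics database, kept only where the protein sequence was available.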
# [2] = system: Fuc(a1-2)[Gal(a1-3)]Gal(b1-4)[Fuc(a1-3)]GlcNAc
# Outline: as §1
# [3] = system: Fuc(a1-2)[Gal(a1-3)]Gal(b1-4)[Fuc(a1-3)]Glc
# Outline: as §1
# [4] = system: Fuc(a1-2)[Gal(a1-3)]Gal
# Outline: as §1
# [5] = system: Fuc(a1-2)[Gal(a1-4)]Gal(b1-4)GlcNAc
# Outline: as §1
# [6] = system: Fuc(a1-2)[GalNAc(a1-3)]Gal(b1-3)GalNAc(a1-3)[Fuc(a1-2)]Gal(b1-4)GlcNAc
# Outline: as §1
# [7] = system: Fuc(a1-2)[GalNAc(a1-3)]Gal(b1-3)GalNAc(b1-3)Gal(a1-4)Gal(b1-4)Glc
# Outline: as §1
# [8] = system: Fuc(a1-2)[GalNAc(a1-3)]Gal(b1-3)GlcNAc(b1-2)Man(a1-3)[Fuc(a1-2)[GalNAc(a1-3)]Gal(b1-3)GlcNAc(b1-2)Man(a1-6)]Man(b1-4)GlcNAc(b1-4)GlcNAc
# Outline: as §1
# [9] = system: Fuc(a1-2)[GalNAc(a1-3)]Gal(b1-3)GlcNAc(b1-2)Man(a1-3)[Fuc(a1-2)[GalNAc(a1-3)]Gal(b1-3)GlcNAc(b1-2)Man(a1-6)]Man(b1-4)GlcNAc(b1-4)[Fuc(a1-6)]GlcNAc
# Outline: as §1
# [10] = system: Fuc(a1-2)[GalNAc(a1-3)]Gal(b1-3)GlcNAc(b1-3)GalNAc
# Outline: as §1
# [11] = system: Fuc(a1-2)[GalNAc(a1-3)]Gal(b1-3)GlcNAc(b1-6)GalNAc
# Outline: as §1
# [12] = system: Fuc(a1-2)[GalNAc(a1-3)]Gal(b1-3)GlcNAc
# Outline: as §1
# [13] = system: Fuc(a1-2)[GalNAc(a1-3)]Gal(b1-4)GlcNAc(b1-2)Man(a1-3)[Fuc(a1-2)[GalNAc(a1-3)]Gal(b1-4)GlcNAc(b1-2)Man(a1-6)]Man(b1-4)GlcNAc(b1-4)GlcNAc
# Outline: as §1
# [14] = system: Fuc(a1-2)[GalNAc(a1-3)]Gal(b1-4)GlcNAc(b1-2)Man(a1-3)[Fuc(a1-2)[GalNAc(a1-3)]Gal(b1-4)GlcNAc(b1-2)Man(a1-6)]Man(b1-4)GlcNAc(b1-4)[Fuc(a1-6)]GlcNAc
# Outline: as §1
# [15] = system: Fuc(a1-2)[GalNAc(a1-3)]Gal(b1-4)GlcNAc(b1-2)Man
# Outline: as §1
# [16] = system: Fuc(a1-2)[GalNAc(a1-3)]Gal(b1-4)GlcNAc(b1-3)Gal(b1-4)GlcNAc(b1-3)Gal(b1-4)GlcNAc
# Outline: as §1
# [17] = system: Fuc(a1-2)[GalNAc(a1-3)]Gal(b1-4)GlcNAc(b1-3)Gal(b1-4)GlcNAc
# Outline: as §1
# [18] = system: Fuc(a1-2)[GalNAc(a1-3)]Gal(b1-4)GlcNAc(b1-3)GalNAc
# Outline: as §1
# [19] = system: Fuc(a1-2)[GalNAc(a1-3)]Gal(b1-4)GlcNAc(b1-3)[Fuc(a1-2)[GalNAc(a1-3)]Gal(b1-4)GlcNAc(b1-6)]GalNAc
# Outline: as §1
# [20] = system: Fuc(a1-2)[GalNAc(a1-3)]Gal(b1-4)GlcNAc(b1-6)GalNAc
# Outline: as §1
# [21] = system: Fuc(a1-2)[GalNAc(a1-3)]Gal(b1-4)GlcNAc
# Outline: as §1
# [22] = system: Fuc(a1-2)[GalNAc(a1-3)]Gal(b1-4)Glc
# Outline: as §1
# [23] = system: Fuc(a1-2)[GalNAc(a1-3)]Gal(b1-4)[Fuc(a1-3)]GlcNAc(b1-3)GalNAc
# Outline: as §1
# [24] = system: Fuc(a1-2)[GalNAc(a1-3)]Gal(b1-4)[Fuc(a1-3)]GlcNAc
# Outline: as §1
# [25] = system: Fuc(a1-2)[GalNAc(a1-3)]Gal
# Outline: as §1
# [26] = system: Fuc(a1-2)[GalNAc(a1-4)]Gal(b1-4)GlcNAc
# Outline: as §1
# [27] = system: Fuc(a1-2)[GalNAc(b1-3)]Gal
# Outline: as §1
# [28] = system: Fuc(a1-3)GlcNAc
# Outline: as §1
# [29] = system: Fuc(a1-3)[Gal(b1-4)]Glc6S
# Outline: as §1
# [30] = system: Fuc(a1-3)[Gal(b1-4)]GlcNAc(b1-2)Man(a1-3)[Fuc(a1-3)[Gal(b1-4)]GlcNAc(b1-2)Man(a1-6)]Man(b1-4)GlcNAc(b1-4)GlcNAc
# Outline: as §1
# [31] = system: Fuc(a1-3)[Gal(b1-4)]GlcNAc(b1-2)Man(a1-3)[Fuc(a1-3)[Gal(b1-4)]GlcNAc(b1-2)Man(a1-6)]Man(b1-4)GlcNAc(b1-4)[Fuc(a1-6)]GlcNAc
# Outline: as §1
# [32] = system: Fuc(a1-3)[Gal(b1-4)]GlcNAc(b1-2)Man
# Outline: as §1
substance,measurement,setting,value
MpAFP RI GFP (Marinomonas primoryensis),glycan array binding signal (z-score),[1],-0.471
same,glycan array binding signal (z-score),[2],-0.51
same,glycan array binding signal (z-score),[3],-0.473
same,glycan array binding signal (z-score),[4],-0.323
same,glycan array binding signal (z-score),[5],0.24
same,glycan array binding signal (z-score),[6],-0.633
same,glycan array binding signal (z-score),[7],0.098
same,glycan array binding signal (z-score),[8],-0.022
same,glycan array binding signal (z-score),[9],-0.477
same,glycan array binding signal (z-score),[10],0.48
same,glycan array binding signal (z-score),[11],-0.706
same,glycan array binding signal (z-score),[12],0.243
same,glycan array binding signal (z-score),[13],0.063
same,glycan array binding signal (z-score),[14],0.602
same,glycan array binding signal (z-score),[15],-0.489
same,glycan array binding signal (z-score),[16],0.122
same,glycan array binding signal (z-score),[17],-0.288
same,glycan array binding signal (z-score),[18],-0.581
same,glycan array binding signal (z-score),[19],-0.593
same,glycan array binding signal (z-score),[20],-0.439
same,glycan array binding signal (z-score),[21],-0.635
same,glycan array binding signal (z-score),[22],-0.56
same,glycan array binding signal (z-score),[23],0.179
same,glycan array binding signal (z-score),[24],0.147
same,glycan array binding signal (z-score),[25],-0.389
same,glycan array binding signal (z-score),[26],-0.557
same,glycan array binding signal (z-score),[27],-0.514
same,glycan array binding signal (z-score),[28],0.406
same,glycan array binding signal (z-score),[29],0.905
same,glycan array binding signal (z-score),[30],-0.659
same,glycan array binding signal (z-score),[31],0.556
same,glycan array binding signal (z-score),[32],0.027

# Quoted from above for reference:
substance,measurement,setting,value
MpAFP RI GFP (Marinomonas primoryensis),glycan array binding signal (z-score),[1],-0.471
same,glycan array binding signal (z-score),[2],-0.51
